## Results from one PubChem assay

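Malaria parasite (P. falciparum) lines kept in red blood cells; parasite DNA is measured by SYBR Green fluorescence after lysis, 72 h after compound addition.
Each compound was titrated across a series from about 0.000037 to 29 µM.
The number is the fitted AC50, the concentration giving a half-maximal change in signal; a lower value means higher potency, whether the curve shows a decrease or an increase.
Calls follow the curve class and fit quality: every row here is inconclusive, covering signal-raising curves and weak, poorly fitted, partial or highest-dose-only inhibition curves.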

Values are in µM.
All entries here are filed as inconclusive.
These entries are mostly ones the record files as inconclusive; other results of the assay are not listed here.
Potencies fitted to partial, single-point or poorly fitting curves are rough.
Some entries filed as inconclusive have a full curve.
The first word of each remark tells which way the curve ran; it can be opposite to the aim of the assay.

structure,setting,Potency (µM),remark
CC(=O)O[C@]1(C(C)=O)CC[C@H]2[C@@H]3C=C(Cl)C4=CC(=O)[C@@H]5C[C@@H]5[C@]4(C)[C@H]3CC[C@@]21C,PC26,13.46,"inhibitor, partial curve"
CC(=O)O[C@]1(C(C)=O)CC[C@H]2[C@@H]3C=C(Cl)C4=CC(=O)[C@@H]5C[C@@H]5[C@]4(C)[C@H]3CC[C@@]21C,CP211,13.46,"inhibitor, partial curve"
CC(=O)O[C@]1(C(C)=O)CC[C@H]2[C@@H]3C=C(Cl)C4=CC(=O)[C@@H]5C[C@@H]5[C@]4(C)[C@H]3CC[C@@]21C,TAB109,8.912,"inhibitor, single point"
CC(=O)O[C@]1(C(C)=O)CC[C@H]2[C@@H]3C=C(Cl)C4=CC(=O)[C@@H]5C[C@@H]5[C@]4(C)[C@H]3CC[C@@]21C,CP217,10,"inhibitor, single point"
CC(=O)N1CCN(c2ccc(OC[C@@H]3CO[C@@](Cn4ccnc4)(c4ccc(Cl)cc4Cl)O3)cc2)CC1,CP335,19.01,"inhibitor, single point"
CC(=O)N1CCN(c2ccc(OC[C@@H]3CO[C@@](Cn4ccnc4)(c4ccc(Cl)cc4Cl)O3)cc2)CC1,TAB165,8.912,"inhibitor, single point"
CC(=O)N1CCN(c2ccc(OC[C@@H]3CO[C@@](Cn4ccnc4)(c4ccc(Cl)cc4Cl)O3)cc2)CC1,DIV17,4.776,"inhibitor, partial curve"
CC(=O)N1CCN(c2ccc(OC[C@@H]3CO[C@@](Cn4ccnc4)(c4ccc(Cl)cc4Cl)O3)cc2)CC1,P93_24,17.78,"inhibitor, single point"
CC(=O)N1CCN(c2ccc(OC[C@@H]3CO[C@@](Cn4ccnc4)(c4ccc(Cl)cc4Cl)O3)cc2)CC1,GB4,19.01,"inhibitor, single point"
CC(=O)N1CCN(c2ccc(OC[C@@H]3CO[C@@](Cn4ccnc4)(c4ccc(Cl)cc4Cl)O3)cc2)CC1,ICS,11.22,"inhibitor, single point"
CC(=O)N1CCN(c2ccc(OC[C@@H]3CO[C@@](Cn4ccnc4)(c4ccc(Cl)cc4Cl)O3)cc2)CC1,CP315,21.33,"inhibitor, single point"
CC(=O)N1CCN(c2ccc(OC[C@@H]3CO[C@@](Cn4ccnc4)(c4ccc(Cl)cc4Cl)O3)cc2)CC1,CP286,8.912,"inhibitor, single point"
CC(=O)N1CCN(c2ccc(OC[C@@H]3CO[C@@](Cn4ccnc4)(c4ccc(Cl)cc4Cl)O3)cc2)CC1,PC26,4.256,"inhibitor, full curve"
CC(=O)N1CCN(c2ccc(OC[C@@H]3CO[C@@](Cn4ccnc4)(c4ccc(Cl)cc4Cl)O3)cc2)CC1,PC15,14.13,"inhibitor, single point"
CC(=O)N1CCN(c2ccc(OC[C@@H]3CO[C@@](Cn4ccnc4)(c4ccc(Cl)cc4Cl)O3)cc2)CC1,CP215,5.358,"inhibitor, partial curve, poor fit"
CC(=O)N1CCN(c2ccc(OC[C@@H]3CO[C@@](Cn4ccnc4)(c4ccc(Cl)cc4Cl)O3)cc2)CC1,CP305,9.528,"inhibitor, single point"
CC(=O)N1CCN(c2ccc(OC[C@@H]3CO[C@@](Cn4ccnc4)(c4ccc(Cl)cc4Cl)O3)cc2)CC1,TAB109,8.912,"inhibitor, single point"
CC(=O)N1CCN(c2ccc(OC[C@@H]3CO[C@@](Cn4ccnc4)(c4ccc(Cl)cc4Cl)O3)cc2)CC1,CP194,13.46,"inhibitor, partial curve, poor fit"
CC(=O)N1CCN(c2ccc(OC[C@@H]3CO[C@@](Cn4ccnc4)(c4ccc(Cl)cc4Cl)O3)cc2)CC1,CP268,19.01,"inhibitor, single point"
CC(=O)N1CCN(c2ccc(OC[C@@H]3CO[C@@](Cn4ccnc4)(c4ccc(Cl)cc4Cl)O3)cc2)CC1,CP203,13.46,"inhibitor, single point"
CC(=O)N1CCN(c2ccc(OC[C@@H]3CO[C@@](Cn4ccnc4)(c4ccc(Cl)cc4Cl)O3)cc2)CC1,CP266,16.94,"inhibitor, partial curve, poor fit"
CC(=O)N1CCN(c2ccc(OC[C@@H]3CO[C@@](Cn4ccnc4)(c4ccc(Cl)cc4Cl)O3)cc2)CC1,DIV14,10.69,"inhibitor, partial curve, poor fit"
CC(=O)N1CCN(c2ccc(OC[C@@H]3CO[C@@](Cn4ccnc4)(c4ccc(Cl)cc4Cl)O3)cc2)CC1,ECU,5.012,"inhibitor, partial curve"
C1OCOCO1,CP194,0.0013,activator
CCN1C[C@]2(COC)[C@H](O)C[C@H](OC)[C@]34C1C([C@H](OC)[C@H]23)[C@]1(OC(C)=O)C2[C@@H](OC(=O)c3ccccc3)C(O)(C[C@H]24)[C@@H](OC)[C@@H]1O,CP194,16.94,"inhibitor, partial curve, poor fit"
CCN1C[C@]2(COC)[C@H](O)C[C@H](OC)[C@]34C1C([C@H](OC)[C@H]23)[C@]1(OC(C)=O)C2[C@@H](OC(=O)c3ccccc3)C(O)(C[C@H]24)[C@@H](OC)[C@@H]1O,7G8,8.912,"inhibitor, partial curve"
CCN1C[C@]2(COC)[C@H](O)C[C@H](OC)[C@]34C1C([C@H](OC)[C@H]23)[C@]1(OC(C)=O)C2[C@@H](OC(=O)c3ccccc3)C(O)(C[C@H]24)[C@@H](OC)[C@@H]1O,W2,1.2,"inhibitor, full curve"
CCN1C[C@]2(COC)[C@H](O)C[C@H](OC)[C@]34C1C([C@H](OC)[C@H]23)[C@]1(OC(C)=O)C2[C@@H](OC(=O)c3ccccc3)C(O)(C[C@H]24)[C@@H](OC)[C@@H]1O,PC26,16.94,"inhibitor, partial curve, poor fit"
CCN1C[C@]2(COC)[C@H](O)C[C@H](OC)[C@]34C1C([C@H](OC)[C@H]23)[C@]1(OC(C)=O)C2[C@@H](OC(=O)c3ccccc3)C(O)(C[C@H]24)[C@@H](OC)[C@@H]1O,DIV14,16.94,"inhibitor, single point"

3 of the entries, repeated:

C1OCOCO1 [CP194] read Potency 0.0013 µM (activator).
CC(=O)N1CCN(c2ccc(OC[C@@H]3CO[C@@](Cn4ccnc4)(c4ccc(Cl)cc4Cl)O3)cc2)CC1 [TAB165] read Potency 8.912 µM (inhibitor, single point).
CCN1C[C@]2(COC)[C@H](O)C[C@H](OC)[C@]34C1C([C@H](OC)[C@H]23)[C@]1(OC(C)=O)C2[C@@H](OC(=O)c3ccccc3)C(O)(C[C@H]24)[C@@H](OC)[C@@H]1O [W2] read Potency 1.2 µM (inhibitor, full curve).

The results are deposited in PubChem (AID504749; NCATS, 2011).